PubChem BioAssay AID1259425, University of Nebraska Medical Center, 2018
Shown is one part, drawn at random, of about 14,000 reagents. A reagent listed more than once was tested more than once; the source does not tell the runs apart. Further read-outs or replicates are left out here. Not given: the time to read-out.

Aim: 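Compare each knockdown with KSR1 silencing using changes in marker transcripts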 (primary screen)
Cell system: HCT116 human colon cancer cells
Reagents: siRNA pool against human genes, 50 nM siRNA
Measurement: 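After 50 nM siRNA pool, branched-DNA assay measures six marker transcripts per well, minus blank, normalised to the geometric mean of two housekeeping transcripts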
Direction: BNIP3L mRNA: higher = more BNIP3L transcript after knockdown

BNIP3L mRNA, set 1, by gene knocked down and reagent
RANBP6 (RAN binding protein 6): SID363998300 0.0832
ZDHHC16 (zDHHC palmitoyltransferase 16): SID364003913 0.23
RSAD2 (radical S-adenosyl methionine domain containing 2): SID364004490 0.115
ITGA9 (integrin subunit alpha 9): SID363993408 0.0366
APH1B (aph-1B gamma-secretase subunit): SID364003590 0.251
LAMA4 (laminin subunit alpha 4): SID363993488 0.167
TIAM2 (TIAM Rac1 associated GEF 2): SID363991335 0.0608; SID363991335 0.0674
TGFBI (transforming growth factor beta induced): SID363991689 0.174
B3GAT3 (beta-1,3-glucuronyltransferase 3): SID363998133 0.0472
C1RL (complement C1r subcomponent like): SID364000188 0.274

Records above whose gene name begins with R or r:
BNIP3L mRNA, set 1, by gene knocked down and reagent
RANBP6 (RAN binding protein 6): SID363998300 0.0832
RSAD2 (radical S-adenosyl methionine domain containing 2): SID364004490 0.115

Next entries:
BNIP3L mRNA, set 1, by gene knocked down and reagent
CPLX2 (complexin 2): SID363997438 0.0571; SID364003872 0.0404
ZNF777 (zinc finger protein 777): SID363999653 0.0371
EPB41L4B (erythrocyte membrane protein band 4.1 like 4B): SID364001061 0.116
SORT1 (sortilin 1): SID363994110 0.132
CMTR2 (cap methyltransferase 2): SID364000995 0.104
ZNF135 (zinc finger protein 135): SID363994538 0.184
JMJD4 (jumonji domain containing 4): SID364002613 0.0976
SHC3 (SHC adaptor protein 3): SID364000269 0.115
CD53 (CD53 molecule): SID363991882 0.0847
UQCR11 (ubiquinol-cytochrome c reductase, complex III subunit XI): SID363997596 0.123
SPAG9 (sperm associated antigen 9): SID363995024 0.052
SLC25A22: SID364002985 0.4
LBR (lamin B receptor): SID363993494 0.0681
ZDHHC1 (zDHHC palmitoyltransferase 1): SID363998420 0.076
LARP6 (La ribonucleoprotein 6, translational regulator): SID364004975 0.0529
SPECC1L: SID364005101 0.094
SH3BP2 (SH3 domain binding protein 2): SID363994172 0.111
AKT3 (AKT serine/threonine kinase 3): SID363996368 0.104
TPPP3 (tubulin polymerization promoting protein family member 3): SID363999757 2.5
PPEF1 (protein phosphatase with EF-hand domain 1): SID363997064 0.0919
UTP11 (UTP11 small subunit processome component): SID363999814 0.162
PIP4K2C (phosphatidylinositol-5-phosphate 4-kinase type 2 gamma): SID364003050 0.193
